According to PubChem BioAssay AID1347423 (Functional Genomics Laboratory (NCATS/FGL), 2020):
In all, about 52,000 sequences went through this assay and about 210 (0.4%) were called active.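 Rule for the calls: active = gene whose silencing raises cell survival under the drug, median off-target-corrected z-score across its silencing RNAs 2 or more; inactive = the rest.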 Some of the results follow.

test: Resistance to Poly (ADP-Ribose) Polymerase inhibitor: Gene Identification via Genome-wide siRNA Screen; conditions: mouse BRCA2 R2336H ES cells, olaparib, CellTiter-Glo viability; hits give high values
In short: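 Genome-wide siRNA screen (3 siRNAs/gene, 20 nM) in mouse ES cells carrying hypomorphic BRCA2 R2336H; olaparib 500 nM added 48 h post-transfection, CellTiter-Glo viability 72 h later. Normalized to plate-median negative control; MAD z-scores, gene median, seed-adjusted.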

Sequence | z-score
GGCCUCCAGAAACAACUCGTT against Ndst2 | inactive: 1.44
CCAGCUACCAGCUGUUUAATT against Txn1 | inactive: -1.41
GGACGACUACAACUACUACTT against Slc18a3 | inactive: 0.184
GGAGACUAUGAAAAAAUCCTT against Anxa1 | inactive: 0.643
CCGUUAUAUCUGCCAGUUUTT against Mrcl | inactive: -1.05
GGAUGCUGAAGUAAUAGUGTT against Tbc1d15 | inactive: 0.187
GCUUCUCAAAUCUAGGAUCTT against Kcnj2 | inactive: 1.72
GGACAAUUGUCGACUGUUCTT against Thbs3 | inactive: 1.22
GCCAGUCAUCUUUGUAGUCTT against Olfr411 | inactive: -0.727
CCAAAGAUACCAUUUUGCATT against 2210415F13Rik | inactive: 0.57
GGAAGAAGUUCAAGAUUGATT against Bap1 | inactive: -2.94
CGGCUCUUUCUUGUGGAUATT against Ggta1 | inactive: 0.188
GGGAGUGCCAAAGUCGAAUTT against D16Ertd472e | inactive: -0.299
GGUGCUGUUCCAUUUCUAUTT against 4930521A18Rik | inactive: 0.0166
GGGAUGGAUUUAGAUAUAATT against 1110057H19Rik | inactive: 0.634
GGAGGUAGAAAAGACAAAATT against Jrk | inactive: -0.689
GGCCACAGCAUCAUCAAUGTT against 1200013A08Rik | inactive: 0.494
GGCAGAUGCGUAUCUCAAUTT against Gpr39 | inactive: 0.479
CCACAUGACCUACUUUUCCTT against 4632412N22Rik | inactive: 0.432
CCCUCUGGCUAAUAAAUGATT against 4930546H06Rik | inactive: -1.62
CCAAUGGGAACAGUCCUGATT against Ela2 | inactive: -1.94
GGUUAGAGGAAAGGUUUAUTT against Htr1f | inactive: -0.668

Sequence | z-score
GGCACAAGGCCUUUAGCACTT against Olfr583 | inactive: 0.124
GGGAGUCUUUUUGUUCCCUTT against 2700050C12Rik | inactive: -1.21
GGGUACAGUUAGAUUUUUUTT against Dutp | inactive: -0.542
GCCAAUAAUUGUCACACAUTT against Gpr97 | inactive: 0.468
GGGAUUCCCAAGGAUGAAGTT against Ghrh | inactive: 0.0542
GGCAUUGACGAGGAUGACCTT against Supt3h | inactive: 0.988
GCCUUGUCAUAUGGGUUCCTT against Timm17b | inactive: 0.712
GGUUGCUGGAUGUCAUCUCTT against Hpn | inactive: 1.44
GGGUCUGAUCACUUAUAUUTT against BC003322 | inactive: -0.142
GGAUGAAAGUUGUAUGUAUTT against Ctsk | inactive: 1.65
GGCCUGAACAAAGUUACAUTT against Slc22a7 | inactive: 2
GCUUCUGUCAUAAUGAUAUTT against Pramel6 | inactive: -0.657
GGAAAACCCUGAGCAAGAGTT against Olfr916 | inactive: -1.79
GGGUGCAAACAAAAUGAUGTT against Pgm2 | inactive: 0.505
CGGGCACAUAAUUUACCAATT against Rfx4 | inactive: -0.644
GGUACUCCUAGAACUCUACTT against 2410002F23Rik | inactive: -0.521
GCAGUUAGUGUUUUUUGACTT against Card12 | inactive: 0.358
GGCUAAAAUCUAUUUAUCGTT against Zfp312 | inactive: 0.203
ACUCCCAUGUUGAAUCCAUTT against Olfr1202 | inactive: 1.54
GGUUACCGCUAUCGUCAAGTT against Sufu | inactive: -0.997
GGAAGGAAGAAGACAAUAATT against 1110001K21Rik | inactive: 1.05
CGUUAAUUGCCCUCAAAGATT against Spon1 | inactive: 0.624

Part of the list above, in CSV form.
Sequence,z-score
GGUUGCUGGAUGUCAUCUCTT against Hpn,inactive: 1.44
GGGUCUGAUCACUUAUAUUTT against BC003322,inactive: -0.142
GGAUGAAAGUUGUAUGUAUTT against Ctsk,inactive: 1.65
GGCCUGAACAAAGUUACAUTT against Slc22a7,inactive: 2
GCUUCUGUCAUAAUGAUAUTT against Pramel6,inactive: -0.657
GGAAAACCCUGAGCAAGAGTT against Olfr916,inactive: -1.79
GGGUGCAAACAAAAUGAUGTT against Pgm2,inactive: 0.505
CGGGCACAUAAUUUACCAATT against Rfx4,inactive: -0.644
GGUACUCCUAGAACUCUACTT against 2410002F23Rik,inactive: -0.521
GCAGUUAGUGUUUUUUGACTT against Card12,inactive: 0.358
GGCUAAAAUCUAUUUAUCGTT against Zfp312,inactive: 0.203
ACUCCCAUGUUGAAUCCAUTT against Olfr1202,inactive: 1.54

Next part

Sequence | z-score
GGCUCUUGUUGCCUUGUGUTT against Crabp1 | inactive: -1.89
GGUCCUAACCGACAUGUCUTT against Vrk1 | inactive: -0.147
GGACAUUGUUGUUCUUGGUTT against Psma7 | inactive: -3.35
CCUAUACGUGCACCAAUGGTT against Srpx2 | inactive: -2.05
GCCGGAAUCCUGUGGAAUCTT against Csrp2bp | inactive: -0.743
GCUGGCACAAGGCAAAACCTT against Drd1a | inactive: 0.938
GGCUCAAACGAACAUAUCGTT against 2810429O05Rik | inactive: -0.789
GGAUGAGUCCAAUCUUCUCTT against Anapc4 | inactive: -2.24
GGACAAUUUACAAAGAUGCTT against Rnmt | inactive: 2.65
GGUGAAAGGUUCUUUAACCTT against BC020188 | inactive: -0.206
GGAGGUUACAUAACAGGUGTT against Sh3d1B | inactive: 0.75
GGAAUUCAAGAAUGCACAGTT against Jarid2 | inactive: -0.315
GGAUCACACUAGUAUUUUCTT against Sertad2 | inactive: -0.122
GGAAGAGUUACAGUUGAUUTT against Chc1l | inactive: -0.0171
CCAAACGAUUUAUAAUCAGTT against 2610034N24Rik | inactive: -2.05
GCCCAUUGAGUUUGAUUCATT against Itgav | inactive: -0.677
GGUGAAGCUAUUUUUCUCATT against 9130012B15Rik | inactive: 1.23
GGUGAACAGUUGAUUUCAUTT against 6330419J24Rik | inactive: -1.64
GGUGAAUACCAGAAGUAAATT against Slc6a8 | inactive: -0.485
GGAAGCAGCCAAGAAGUUATT against Olfr259 | inactive: -0.402
GGAGAACUGCUUCCACAUGTT against 3110037K17Rik | inactive: -0.658
GCUACAAUUGUCUAAAUCCTT against Slc25a20 | inactive: 0.515
